Results from PMC12669767.
These are yes or no findings as the source states them, for the method shown. Binding seen in cells or lysates may run through a third protein. Some entries that bind do so weakly or less than the wild type.

Amino acid sequences for entries named in this document (tags omitted).
UniProt Q76N89: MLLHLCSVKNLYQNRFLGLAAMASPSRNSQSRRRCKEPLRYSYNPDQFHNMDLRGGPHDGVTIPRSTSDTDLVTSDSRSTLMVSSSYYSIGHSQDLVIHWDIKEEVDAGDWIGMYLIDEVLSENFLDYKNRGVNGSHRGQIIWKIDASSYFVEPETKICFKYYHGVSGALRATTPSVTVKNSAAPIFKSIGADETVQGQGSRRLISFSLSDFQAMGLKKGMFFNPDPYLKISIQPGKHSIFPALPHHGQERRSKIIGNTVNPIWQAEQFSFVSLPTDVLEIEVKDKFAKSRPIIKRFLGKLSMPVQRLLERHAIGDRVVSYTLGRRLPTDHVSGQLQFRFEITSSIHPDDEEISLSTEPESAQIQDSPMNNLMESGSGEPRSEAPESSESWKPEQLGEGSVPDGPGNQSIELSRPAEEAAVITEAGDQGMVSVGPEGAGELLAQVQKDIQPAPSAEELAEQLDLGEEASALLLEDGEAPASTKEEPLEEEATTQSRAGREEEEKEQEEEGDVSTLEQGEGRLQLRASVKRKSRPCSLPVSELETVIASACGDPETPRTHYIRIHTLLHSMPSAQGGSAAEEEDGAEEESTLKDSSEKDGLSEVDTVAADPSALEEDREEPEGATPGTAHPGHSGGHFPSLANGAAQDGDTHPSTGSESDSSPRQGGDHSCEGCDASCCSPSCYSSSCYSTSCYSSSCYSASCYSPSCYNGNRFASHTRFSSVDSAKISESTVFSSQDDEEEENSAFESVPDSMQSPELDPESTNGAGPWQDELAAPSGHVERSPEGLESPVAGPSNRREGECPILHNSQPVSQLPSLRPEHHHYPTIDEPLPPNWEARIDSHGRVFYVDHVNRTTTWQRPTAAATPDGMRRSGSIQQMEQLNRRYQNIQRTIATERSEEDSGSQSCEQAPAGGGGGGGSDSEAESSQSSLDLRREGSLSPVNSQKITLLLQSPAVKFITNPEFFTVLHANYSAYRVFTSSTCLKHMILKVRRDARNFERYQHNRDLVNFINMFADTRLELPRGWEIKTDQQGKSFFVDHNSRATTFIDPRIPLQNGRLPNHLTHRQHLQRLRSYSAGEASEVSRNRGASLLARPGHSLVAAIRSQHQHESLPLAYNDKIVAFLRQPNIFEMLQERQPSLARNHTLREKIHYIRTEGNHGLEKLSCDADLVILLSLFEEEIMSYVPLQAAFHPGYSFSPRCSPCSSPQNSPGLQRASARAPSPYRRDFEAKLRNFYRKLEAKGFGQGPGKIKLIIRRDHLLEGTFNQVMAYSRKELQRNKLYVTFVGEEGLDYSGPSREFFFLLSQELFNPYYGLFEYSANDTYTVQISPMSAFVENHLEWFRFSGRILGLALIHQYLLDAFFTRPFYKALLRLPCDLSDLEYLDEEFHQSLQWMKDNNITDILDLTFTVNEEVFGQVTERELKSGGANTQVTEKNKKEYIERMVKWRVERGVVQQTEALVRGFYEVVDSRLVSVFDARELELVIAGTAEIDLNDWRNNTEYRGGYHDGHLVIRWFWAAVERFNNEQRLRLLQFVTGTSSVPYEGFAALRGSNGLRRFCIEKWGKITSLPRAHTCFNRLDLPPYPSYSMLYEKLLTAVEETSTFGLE
UniProt P46934: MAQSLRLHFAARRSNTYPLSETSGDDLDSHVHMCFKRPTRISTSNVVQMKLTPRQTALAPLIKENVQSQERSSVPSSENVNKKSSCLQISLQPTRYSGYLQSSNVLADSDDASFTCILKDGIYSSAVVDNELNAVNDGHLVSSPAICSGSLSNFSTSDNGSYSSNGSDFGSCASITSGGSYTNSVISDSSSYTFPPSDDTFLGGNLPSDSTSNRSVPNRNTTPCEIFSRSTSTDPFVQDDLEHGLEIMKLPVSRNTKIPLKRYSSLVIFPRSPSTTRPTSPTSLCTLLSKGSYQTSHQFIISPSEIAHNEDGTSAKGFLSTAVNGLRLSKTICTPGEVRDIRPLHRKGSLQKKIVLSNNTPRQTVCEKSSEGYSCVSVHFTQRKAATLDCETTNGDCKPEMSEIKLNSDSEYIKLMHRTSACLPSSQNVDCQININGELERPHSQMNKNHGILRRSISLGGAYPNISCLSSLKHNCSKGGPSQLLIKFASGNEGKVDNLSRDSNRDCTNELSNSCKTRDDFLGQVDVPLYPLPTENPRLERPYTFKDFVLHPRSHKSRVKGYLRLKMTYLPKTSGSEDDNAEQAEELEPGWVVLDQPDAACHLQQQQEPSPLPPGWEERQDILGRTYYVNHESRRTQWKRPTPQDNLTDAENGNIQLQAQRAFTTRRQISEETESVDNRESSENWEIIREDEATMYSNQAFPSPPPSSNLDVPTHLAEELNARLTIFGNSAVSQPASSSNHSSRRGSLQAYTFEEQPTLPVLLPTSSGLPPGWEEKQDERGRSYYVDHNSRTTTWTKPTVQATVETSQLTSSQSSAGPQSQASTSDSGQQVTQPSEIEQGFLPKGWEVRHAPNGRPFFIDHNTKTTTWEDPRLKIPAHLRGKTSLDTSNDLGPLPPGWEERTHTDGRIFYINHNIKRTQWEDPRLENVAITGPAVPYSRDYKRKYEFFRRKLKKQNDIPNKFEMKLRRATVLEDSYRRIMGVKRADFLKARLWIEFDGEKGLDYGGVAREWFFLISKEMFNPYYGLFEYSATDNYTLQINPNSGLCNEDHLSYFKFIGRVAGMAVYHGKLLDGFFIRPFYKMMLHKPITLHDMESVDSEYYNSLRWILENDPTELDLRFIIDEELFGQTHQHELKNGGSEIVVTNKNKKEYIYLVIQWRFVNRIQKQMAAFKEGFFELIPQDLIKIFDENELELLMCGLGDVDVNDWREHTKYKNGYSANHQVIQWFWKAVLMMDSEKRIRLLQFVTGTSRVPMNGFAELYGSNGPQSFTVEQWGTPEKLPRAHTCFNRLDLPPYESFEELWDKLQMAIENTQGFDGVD
UniProt Q9P2P5: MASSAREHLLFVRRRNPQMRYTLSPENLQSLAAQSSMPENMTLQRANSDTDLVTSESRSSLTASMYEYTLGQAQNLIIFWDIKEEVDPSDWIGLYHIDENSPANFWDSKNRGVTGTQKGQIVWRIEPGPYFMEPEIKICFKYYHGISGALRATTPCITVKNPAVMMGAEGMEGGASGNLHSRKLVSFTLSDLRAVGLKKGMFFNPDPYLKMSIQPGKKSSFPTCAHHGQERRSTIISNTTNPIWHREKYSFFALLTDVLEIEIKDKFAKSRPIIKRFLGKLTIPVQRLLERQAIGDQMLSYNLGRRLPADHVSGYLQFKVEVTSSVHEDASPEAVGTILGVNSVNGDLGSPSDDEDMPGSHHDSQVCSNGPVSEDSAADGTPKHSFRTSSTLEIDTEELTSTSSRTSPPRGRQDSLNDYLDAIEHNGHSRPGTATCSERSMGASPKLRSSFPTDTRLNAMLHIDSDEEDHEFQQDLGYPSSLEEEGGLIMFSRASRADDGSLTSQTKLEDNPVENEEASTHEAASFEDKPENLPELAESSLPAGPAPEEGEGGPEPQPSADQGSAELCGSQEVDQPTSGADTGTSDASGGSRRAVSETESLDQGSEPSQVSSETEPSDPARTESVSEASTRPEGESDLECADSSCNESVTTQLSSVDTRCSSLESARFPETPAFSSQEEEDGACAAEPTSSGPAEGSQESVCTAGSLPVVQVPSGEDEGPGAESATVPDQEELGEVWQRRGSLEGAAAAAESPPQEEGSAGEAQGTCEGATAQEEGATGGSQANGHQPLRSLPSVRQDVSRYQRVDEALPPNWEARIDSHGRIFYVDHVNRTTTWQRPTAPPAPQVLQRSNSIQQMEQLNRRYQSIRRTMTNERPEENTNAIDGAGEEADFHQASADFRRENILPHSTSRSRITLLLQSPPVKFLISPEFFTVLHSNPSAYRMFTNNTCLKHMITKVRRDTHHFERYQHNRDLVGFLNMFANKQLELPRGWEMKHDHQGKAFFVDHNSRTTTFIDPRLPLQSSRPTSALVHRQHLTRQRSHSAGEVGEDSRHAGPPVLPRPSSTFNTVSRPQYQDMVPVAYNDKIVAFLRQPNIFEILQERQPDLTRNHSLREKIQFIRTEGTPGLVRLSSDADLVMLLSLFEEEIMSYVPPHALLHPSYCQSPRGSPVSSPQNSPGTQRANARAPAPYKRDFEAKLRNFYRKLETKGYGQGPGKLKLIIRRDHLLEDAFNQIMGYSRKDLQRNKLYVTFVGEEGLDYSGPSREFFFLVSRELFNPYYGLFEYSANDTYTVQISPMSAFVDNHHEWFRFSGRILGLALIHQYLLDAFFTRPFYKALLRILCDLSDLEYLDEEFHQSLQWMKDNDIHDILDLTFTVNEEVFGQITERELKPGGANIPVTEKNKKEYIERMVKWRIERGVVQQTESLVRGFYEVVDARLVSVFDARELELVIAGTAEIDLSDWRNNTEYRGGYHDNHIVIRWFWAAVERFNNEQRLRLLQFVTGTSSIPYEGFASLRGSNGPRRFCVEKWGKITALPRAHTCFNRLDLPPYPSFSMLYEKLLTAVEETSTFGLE

How the values were obtained:
[1] = molecular target: T1, ALFA-TXNIP^PPCY331AACA (first PPxY motif mutated) (human) (UniProt Q9H3M7); experiment: pull-down; bead-immobilized prey assay (BIPA): ALFA-TXNIP or PPxY mutants captured from HEK293T lysate on ALFA Selector ST beads and washed, then incubated 30 min on ice with lysate of HEK293T over-expressing YFP-tagged HECT-type ubiquitin ligases; 100 mM HEPES pH 7.5, 100 mM NaCl wash; YFP on the beads read by fluorescence microscopy and quantified; only the target purified
T1 sequence: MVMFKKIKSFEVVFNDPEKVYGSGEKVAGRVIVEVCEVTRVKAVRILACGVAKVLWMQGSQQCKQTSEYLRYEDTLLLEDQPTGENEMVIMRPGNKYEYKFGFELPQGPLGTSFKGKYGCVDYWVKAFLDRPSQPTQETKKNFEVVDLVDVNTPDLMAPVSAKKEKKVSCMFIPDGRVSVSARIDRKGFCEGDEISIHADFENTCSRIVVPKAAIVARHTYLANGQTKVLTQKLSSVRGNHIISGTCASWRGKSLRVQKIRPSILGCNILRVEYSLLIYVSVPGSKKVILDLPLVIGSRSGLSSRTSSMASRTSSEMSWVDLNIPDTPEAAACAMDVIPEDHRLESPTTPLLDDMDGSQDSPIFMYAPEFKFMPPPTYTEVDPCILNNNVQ

[2] = molecular target: ALFA-tagged TXNIP (thioredoxin interacting protein), expressed in HEK293T (human) (UniProt Q9H3M7); experiment: as above

binding [1]	binding [2]	Substance
binds	binds	YFP-HECW1 (from UniProt Q76N89 1-1606) (enzyme)
binds	binds	YFP-NEDD4 (from UniProt P46934 1-1319) (enzyme)
binds	binds	YFP-HECW2 (from UniProt Q9P2P5 1-1572) (enzyme)
